{"source": "patent US20030190322A1", "about": "(priority 2000, published 2003)", "test": "peptide made by a vendor", "settings": "whole synthesis"}
{"substance": "Ac-CDGAVQPDGGQPAVRNER-NH2", "values": [{"measurement": "purity (crude or final not stated)", "value": "purity more or about 95%"}]}
